In ChEMBL document CHEMBL1140614, “In silico and in vitro filters for the fast estimation of skin permeation and distribution of new chemical entities” (J Med Chem, 2007):

Test system: Zone of skin
Conditions: human

Oc1cccc(O)c1 [RESORCINOL]
log Kp: -7.18
